Experimental data: PubChem BioAssay AID720505 (Drosophila RNAi Screening Center, 2013)
Purpose: 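Knock-downs that reduce calcium influx once internal stores are emptied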 (primary screen). Cell system: Drosophila S2R+ cells. Reagent: long dsRNA against Drosophila genes. Conditions: thapsigargin (2 µM) in calcium-free buffer to empty internal stores, then 2 mM calcium added back. Read-out: 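Fluo-4 signal in 384-well plates read on a FLIPR after thapsigargin (2 µM, calcium-free) store depletion and 2 mM calcium add-back; unnormalised mean endpoint per well; screen run twice, selected wells retested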. Scale: calcium signal and retest calcium signal: higher = more calcium entry after store depletion. Hit rule: 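About 1500 genes called as lowering calcium entry, by varying amounts, judged against per-plate control wells with STIM1 as positive and Rho1 as negative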. Meaning of the calls: active = called as lowering calcium entry; inactive = not called.
In all, the deposit lists about 20,000 reagents; this is an unselected part of those with a known target gene and a result. Over the whole deposit, about 2,100 (10%) are marked active. 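Raw plate signals without normalisation; calls rest on control-based scores that were not deposited; replicate 2 separates called from uncalled poorly.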 The numbers tell different reagents against one gene apart. Names joined by + are all predicted targets of the reagent. The record does not give: the amount of reagent, the time to read-out.

target,reagent no.,"calcium signal, replicate 1","calcium signal, replicate 2","retest calcium signal, replicate 1","retest calcium signal, replicate 2",outcome
CG30457,1,192,173,88.8,74.6,inactive
CG5639,1,62.7,85.5,,,active
cib (ciboulot),1,225,124,8616,141,inactive
t (tan),1,77.3,94.3,,,inactive
Ca-alpha1D (Ca[2+]-channel protein alpha[[1]] subunit D),1,118,88,,,inactive
Tango14 (Transport and Golgi organization 14),1,214,140,,,inactive
GATAd,1,64.8,57.8,,,active
hyd (hyperplastic discs),1,143,103,,,inactive
Fie (Fire exit),1,66.3,114,,,active
Zir (Zizimin-related),1,84.5,141,,,inactive
CG17329,1,73,90.4,,,active
tacc (transforming acidic coiled-coil protein),1,56,51,114,66,active
CG3106,1,141,148,,,inactive
MED10 (Mediator complex subunit 10),1,75.5,136,,,inactive
CG9259,1,70.5,136,,,inactive
CG12010,1,65.8,123,,,inactive
Scr (Sex combs reduced),1,84.3,142,,,inactive
Scr (Sex combs reduced),2,148,144,,,inactive
CG30047,1,90.5,144,,,inactive
Orc4 (Origin recognition complex subunit 4),1,57.3,162,,,active
CG11426,1,72.7,152,,,inactive
Trmt6 (tRNA methyltransferase 6 non-catalytic subunit),1,99.4,99.9,,,inactive
dj-1beta,1,161,150,,,inactive
pHCl-1 (pH-sensitive chloride channel 1),1,,,,,active
pHCl-1 (pH-sensitive chloride channel 1),2,118,189,,,inactive
pHCl-1 (pH-sensitive chloride channel 1),3,133,154,,,inactive
pHCl-1 (pH-sensitive chloride channel 1),4,126,121,,,inactive
rtet (tetracycline resistance),1,194,396,,,inactive
CG33296,1,101,98.3,,,inactive
CG9945,1,84.2,83.9,,,inactive
p38a (p38a MAP kinase),1,62.5,187,,,active
DNAlig3 (DNA ligase 3),1,182,117,,,inactive
CG13833,1,189,148,,,inactive
NPFR (Neuropeptide F receptor),1,119,134,,,inactive
pan (pangolin),1,101,110,,,inactive
pan (pangolin),2,130,192,,,inactive
lilli (lilliputian),1,100,173,67.9,91,inactive
CG30496,1,153,76.7,,,inactive
CG15056,1,95.3,77.9,,,active
Grx1 (Glutaredoxin 1),1,97.4,147,,,inactive
side-III (sidestep III),1,158,190,,,inactive
side-III (sidestep III),2,150,238,,,inactive
side-III (sidestep III),3,143,195,,,inactive
Or98P (Odorant receptor 98a pseudogene),1,115,129,,,inactive
CG15553,1,175,118,,,inactive
CG5790,1,84,102,,,inactive
Pi4KIIalpha (Phosphatidylinositol 4-kinase II alpha),1,114,138,,,inactive
Pi4KIIalpha (Phosphatidylinositol 4-kinase II alpha),2,155,240,,,inactive

Hits (from the list above):
target,reagent no.,"calcium signal, replicate 1","calcium signal, replicate 2","retest calcium signal, replicate 1","retest calcium signal, replicate 2",outcome
CG5639,1,62.7,85.5,,,active
GATAd,1,64.8,57.8,,,active
Fie (Fire exit),1,66.3,114,,,active
CG17329,1,73,90.4,,,active
tacc (transforming acidic coiled-coil protein),1,56,51,114,66,active
Orc4 (Origin recognition complex subunit 4),1,57.3,162,,,active
pHCl-1 (pH-sensitive chloride channel 1),1,,,,,active
p38a (p38a MAP kinase),1,62.5,187,,,active
CG15056,1,95.3,77.9,,,active

Continued.
target,reagent no.,"calcium signal, replicate 1","calcium signal, replicate 2","retest calcium signal, replicate 1","retest calcium signal, replicate 2",outcome
FoxP (Forkhead box P),1,145,126,,,inactive
FoxP (Forkhead box P),2,67.8,204,,,inactive
kibra,1,135,160,,,inactive
kibra,2,140,157,,,inactive
kibra,3,103,110,,,inactive
spdo (sanpodo),1,,,,,active
robo1 (roundabout 1),1,184,250,,,inactive
Tnpo-SR (Transportin-Serine/Arginine rich),1,88.4,172,,,inactive
slp1 (sloppy paired 1),1,137,224,,,inactive
Drp1 (Dynamin related protein 1),1,62.1,158,,,active
tld (tolloid),1,259,121,,,inactive
BBS9 (Bardet-Biedl syndrome 9),1,126,117,,,inactive
CG8008,1,130,89.2,,,inactive
CG1750,1,44.4,73.8,,,active
CG32668,1,,,,,inactive
MrgBP (MRG/MORF4L binding protein),1,86.6,128,,,inactive
CheB53b (Chemosensory protein B 53b),1,54.4,106,,,active
CG8006,1,96,135,,,inactive
epsilonTry (epsilonTrypsin),1,137,215,,,inactive
Usf,1,156,118,,,inactive
RpL29 (Ribosomal protein L29),1,113,91.5,,,inactive
CG5937,1,269,117,,,inactive
SpdS (Spermidine Synthase),1,173,119,,,inactive
CG10527,1,170,111,,,inactive
Mrgn1 (Mahogunin ring finger 1),1,187,133,,,inactive
CG13840,1,174,138,,,inactive
CG13840,2,143,160,,,inactive
Myd88,1,193,94.9,,,inactive
lectin-21Ca,1,134,143,,,inactive
mei-W68 (meiotic W68),1,175,134,,,inactive
mtgo (miles to go),1,60.3,114,154,174,active
mtgo (miles to go),2,195,169,118,140,inactive
mtgo (miles to go),3,95.3,161,,,inactive
mtgo (miles to go),4,144,120,,,inactive
mtgo (miles to go),5,123,109,,,inactive
CG10962,1,106,148,,,inactive
Jasper (JIL-1 anchoring and stabilizing protein),1,134,136,,,inactive
psh (persephone),1,117,140,,,inactive
Pfrx (6-phosphofructo-2-kinase),1,182,116,,,inactive
Pfrx (6-phosphofructo-2-kinase),2,110,103,,,inactive
Gga,1,158,154,,,inactive
CG1314,1,181,182,,,inactive
Gapdh2 (Glyceraldehyde 3 phosphate dehydrogenase 2),1,114,120,,,inactive
CSN1a (COP9 signalosome subunit 1a),1,108,112,,,inactive
Ac76E (Adenylyl cyclase 76E),1,94.2,90.5,,,inactive
IP3K1 + hpRNA:CR18854,1,111,158,,,inactive
Nemp (Nuclear envelope integral membrane protein),1,89,113,,,inactive
CG43327 + CG43328,1,157,93.6,,,inactive
CG31021,1,130,213,,,inactive
Cyp9f2 (Cytochrome P450 9f2),1,131,142,,,inactive
CG32117,1,153,101,,,inactive
CG13186,1,86.5,154,,,inactive
Alp5 (Alkaline phosphatase 5),1,156,195,,,inactive
CG6891,1,142,133,,,inactive
jub (Ajuba LIM protein),1,103,74.7,,,inactive
Klp3A (Kinesin-like protein at 3A),1,103,139,,,inactive
Klp3A (Kinesin-like protein at 3A),2,127,110,,,inactive
ana1 (anastral spindle 1),1,240,278,,,inactive
ana1 (anastral spindle 1),2,62.8,160,,,inactive
